Paper PMC4394464, “Identification and Pharmacokinetics of Multiple Potential Bioactive Constituents after Oral Administration of Radix Astragali on Cyclophosphamide-Induced Immunosuppression in Balb/c Mice” (International Journal of Molecular Sciences, 2015)

Assay: Profiling of absorbed constituents and metabolites in mice plasma after oral administration of RA (UFLC-DAD-Q-TOF-MS/MS)
Settings: oral RA extract 6 g/kg BW; cyclophosphamide-induced immunosuppressed Balb/c mice; plasma sampled 0.25-36 h; '-' = not detected

Source: Dosed Plasma (time points at which the compound was detected): 0.25 to 8 h
Compound: COc1cc(O)c2c(=O)c(O)c(-c3ccc(O)cc3)oc2c1 [Peak M8, Rhamnocitrin]
